Conditions: both, human, plasma, oral, 40 mg

CC(C)c1c(C(=O)Nc2ccccc2)c(-c2ccccc2)c(-c2ccc(F)cc2)n1CC[C@@H](O)C[C@@H](O)CC(=O)O [Atorvastatin]
AUC(0-inf): 80.8 ng·h/mL | AUC(0-t): 78.8 ng·h/mL | Cmax: 19.7 ng/mL
